At least one structure is not confirmed: it was looked up by name or label, or the drawing left a doubt.
Test system: E. coli
Test: Antibiotic susceptibility testing of E. coli growth on photonic microarrays diffraction grating (relative EOT shift over time)
Assay type: cell-based
Conditions: Kanamycin 50 μg/ml; FIG. 4

SMILES: NC[C@H]1O[C@H](O[C@H]2[C@H](O)[C@@H](O[C@H]3O[C@H](CO)[C@@H](O)[C@H](N)[C@H]3O)[C@H](N)C[C@@H]2N)[C@H](O)[C@@H](O)[C@@H]1O [Kanamycin]
- Real time optical monitoring of E. coli bacteria growth upon introduction of drug: growth arrest
